{"source": "PubChem BioAssay AID1347075", "about": "(National Center for Advancing Translational Sciences (NCATS), 2019)", "note": "Several values for one entry are separate records, joined by “and”; a condition that tells them apart may be missing. Equal entries are not always repeated. The campaign covered roughly 400,000 compounds. About 5,500 (1.4%) were called active. Inconclusive means that the source gave no clear call. Such entries were picked first, then a sample of the others. Calls come from the whole dose curve; as a rule, active = well fitted cell-killing curve with a large enough effect; inconclusive = small, poorly fitted or top-dose-only effect, or effect the other way; inactive = flat fitted curve, though single readings scatter. A potency beside an inconclusive call is a rough fit, not a confirmed value. % is set by controls: 0 for no effect and ±100 for the full control effect; potency is the fitted concentration of half-maximal effect.", "data": [{"assay": "qHTS assay for MDR1-selective chemotherapeutics: Primary screen using the parental adenocarcinoma cell KB-3-1; note: nearly all actives have a fitted effect of over 60% in size", "conditions": "KB-3-1 viability, CellTiter-Glo ATP luminescence, 72 h; activity change, negative = cytotoxic: at 46.1 µM (top of the series)", "outline": "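Multi-concentration cytotoxicity screen in KB-3-1 cells grown in DMEM lacking phenol red with 10% FBS. After 72 h at 37 °C with compound, ATP-dependent luminescence was recorded.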", "values": [{"smiles": "N#Cc1c(NC(=O)c2ccc(Cn3cc(Br)cn3)o2)sc2c1CCCCCC2", "Potency": "inconclusive: 20.6 µM [cytotoxic, single point]"}, {"smiles": "COc1ccc(-n2nc(C(=O)NCC(=O)N3CCC(C)CC3)c3ccccc3c2=O)c(OC)c1", "activity change, negative = cytotoxic": "inactive: 20.2%"}, {"smiles": "Cc1nn(C)c(Sc2ccccc2N)c1[N+](=O)[O-]", "activity change, negative = cytotoxic": "inactive: -0.0115%"}, {"smiles": "Cc1ccc(Oc2ccccc2NC(=O)CSCC(=O)Nc2cc(C)on2)cc1", "Potency": "inconclusive: 23.1 µM [cytotoxic, partial curve]"}, {"smiles": "COc1cccc2c1C(=O)c1c(O)c3c(c(O)c1C2=O)CC(O)(C(C)=O)CC3OC1CC(O)C(O)C(C)O1", "note": "(stereo not drawn)", "Potency": "inconclusive: 14.6 µM [cytotoxic, single point]"}, {"smiles": "CNC(=O)c1ccc(-c2sc3nc(N4CCOCC4)c4c(c3c2N)CCCC4)o1", "Potency": "inconclusive: 29.1 µM [cytotoxic, single point]"}, {"smiles": "COc1ccc(C2(NC(C)=O)CCN(Cc3cccnc3)CC2)cc1", "activity change, negative = cytotoxic": "inactive: 18.9%"}, {"smiles": "CC(C)(C)c1cc(NC(=O)CCl)n(-c2ccccc2)n1", "Potency": "inconclusive: 29.1 µM [cytotoxic, single point]"}, {"smiles": "COc1ccccc1[C@@]1(C)ON(c2ccccc2C(F)(F)F)C1=O", "Potency": "inconclusive: 29.1 µM [cytotoxic, single point]"}, {"smiles": "COc1ccc(NC(=S)Nc2ccccc2SC)c(OC)c1", "activity change, negative = cytotoxic": "inactive: -11.3%"}, {"smiles": "COc1ccc(C2(SCC(N)C(=O)O)c3ccccc3-c3ccccc32)cc1", "note": "(stereo not drawn)", "activity change, negative = cytotoxic": "inactive: 6.39%"}, {"smiles": "Cc1ccc(NS(=O)(=O)c2cc(C(=O)NCCSC3CCCCC3)ccc2C)cc1", "Potency": "inconclusive: 29.1 µM [cytotoxic, single point]"}, {"smiles": "CCC(Oc1ccccc1)C(=O)N(Cc1ccccc1)c1ccccn1", "note": "(stereo not drawn)", "Potency": "inconclusive: 18.4 µM [cytotoxic, partial curve, poor fit]"}, {"smiles": "CCC(=O)N1CCc2cc(Br)cc(S(=O)(=O)N3CCCC(C(=O)NCc4ccc(C)cc4)C3)c21", "note": "(stereo not drawn)", "activity change, negative = cytotoxic": "inactive: -14.2%"}, {"smiles": "C=C(C)COc1ccc2c(c1)CCC1C2CCC2(C)C(=O)C(=NO)CC12", "note": "(stereo not drawn)", "Potency": "inconclusive: 23.1 µM [cytotoxic, single point]"}, {"smiles": "COC(=O)[C@]12CCCCC=C1N(CCc1ccc(OC)c(OC)c1)C(=O)[C@H](CC(=O)NCC13CC4CC(CC(C4)C1)C3)C2", "Potency": "inconclusive: 29.1 µM [cytotoxic, single point]"}, {"smiles": "CCc1c(C)nc2c(Br)cccc2c1SCCC#N", "Potency": "inconclusive: 29.1 µM [cytotoxic, single point]"}, {"smiles": "O=C(CN1C(=O)C2CCCCC2C1=O)Nc1ccc(S(=O)(=O)Nc2ncccn2)cc1", "note": "(stereo not drawn)", "activity change, negative = cytotoxic": "inactive: 13%"}, {"smiles": "CCCNC(=O)Cn1c(=O)/c(=C/c2ccc(-c3ccc([N+](=O)[O-])cc3)o2)s/c1=C\\C(=O)C(C)(C)C", "Potency": "inconclusive: 0.116 µM [rising, full curve]"}, {"smiles": "CN(C)S(=O)(=O)c1cccc(NC(=O)CNc2cccc(S(=O)(=O)N3CCCCC3)c2)c1", "Potency": "inconclusive: 20.6 µM [cytotoxic, single point]"}, {"smiles": "Cc1ccccc1S(=O)(=O)Cc1ccc(C(=O)N2CCN(c3cccc(C)c3C)CC2)o1", "Potency": "active: 5.17 µM"}, {"smiles": "Cc1c(C)c2c(C)nn(-c3ccccc3)c2[nH]c1=O", "activity change, negative = cytotoxic": "inactive: 14.5%"}, {"smiles": "COc1ccc(-c2csc(NCCc3nc4cc(Cl)c(Cl)cc4n3CCCO)n2)cc1", "Potency": "inconclusive: 29.1 µM [cytotoxic, single point]"}, {"smiles": "COc1ccc(S(=O)(=O)c2c(Nc3cccc(Cl)c3)sc(C(=O)c3ccccc3)c2N)cc1", "Potency": "inconclusive: 20.6 µM [cytotoxic, single point]"}, {"smiles": "Cc1ccc(C)c(S(=O)(=O)NCC(=O)Nc2sc3c(c2C(N)=O)CCC(C)C3)c1", "note": "(stereo not drawn)", "Potency": "inconclusive: 29.1 µM [cytotoxic, single point]"}, {"smiles": "O=C(N[C@H]1C/C=C\\C[C@@H](CC(=O)N(CCO)Cc2ccccc2)C(=O)NC[C@H](c2ccccc2)OC1=O)OCC1c2ccccc2-c2ccccc21", "Potency": "inconclusive: 18.4 µM [cytotoxic, single point]"}, {"smiles": "Cc1n[nH]c(C)c1C(=O)CC1(O)C(=O)N(CCc2ccccc2)c2ccc(Br)cc21", "note": "(stereo not drawn)", "Potency": "inconclusive: 29.1 µM [cytotoxic, single point]"}, {"smiles": "Cc1ccc(S(=O)(=O)N(C)C[C@@H]2OCCCC[C@@H](C)Oc3ccc(NS(=O)(=O)c4c(C)noc4C)cc3C(=O)N([C@H](C)CO)C[C@@H]2C)cc1", "Potency": "inconclusive: 20.6 µM [cytotoxic, single point]"}, {"smiles": "Cc1cc(C(=O)NCCCN2CCOCC2)n(-c2ccccc2)n1", "Potency": "inconclusive: 25.9 µM [rising, single point]"}, {"smiles": "COc1ccc(N2CCN(CCCNC(=O)c3c(C)nn(-c4ccc(F)cc4)c3-n3cccc3)CC2)cc1", "Potency": "inconclusive: 16.4 µM [cytotoxic, single point]"}, {"smiles": "O=c1[nH]c2cc3c(cc2cc1C(c1nnnn1Cc1ccccc1)N1CCCc2ccccc21)OCO3", "note": "(stereo not drawn)", "Potency": "inconclusive: 29.1 µM [cytotoxic, single point]"}, {"smiles": "O=C(On1c(-c2ccccc2)nc2ccccc2c1=O)c1ccco1", "activity change, negative = cytotoxic": "inactive: -17.5%"}, {"smiles": "Cc1ccc(Cl)cc1NC1=C/C(=N\\S(=O)(=O)c2cccs2)c2ccccc2C1=O", "Potency": "active: 3.26 µM and inconclusive: 8.2 µM [cytotoxic, partial curve, poor fit]"}, {"smiles": "Cc1cc2c(C)cc(=O)[nH]c2cc1NC(=O)CCl", "Potency": "inconclusive: 20.6 µM [cytotoxic, single point]"}, {"smiles": "CC(C(=O)Nc1ccc2c(c1)OCCO2)N1Cc2ccccc2C1=O", "note": "(stereo not drawn)", "activity change, negative = cytotoxic": "inconclusive: -42.6%"}, {"smiles": "CC(=O)Nc1ccc(Nc2ccc3c4c(cc(=O)n3C)-c3ccccc3C(=O)c24)cc1", "Potency": "inconclusive: 18.4 µM [rising, single point]"}, {"smiles": "CCc1c(C)nc2ncnn2c1NCCc1ccc(OC)c(OC)c1", "Potency": "active: 23.1 µM"}, {"smiles": "COc1ccccc1N1CCN(C(=O)c2cc3c(=O)n(Cc4cccs4)ccc3nc2C)CC1", "activity change, negative = cytotoxic": "inactive: -4.52%"}, {"smiles": "c1ccc(CCN=C2CCCc3c2[nH]c2ccccc32)cc1", "Potency": "active: 13 µM"}, {"smiles": "O=C(Nc1nc(-c2ccccn2)cs1)C1CC1", "Potency": "inconclusive: 16.4 µM [cytotoxic, single point]"}, {"smiles": "COc1ccccc1-c1cc(C(=O)Nc2cc(C)n(Cc3ccc(Cl)cc3)n2)no1", "activity change, negative = cytotoxic": "inactive: -6.04%"}, {"smiles": "COc1cc(OC)cc(N(C(=O)CNC(=O)c2ccco2)C(C(=O)NCC2CCCO2)c2ccccc2)c1", "note": "(stereo not drawn)", "Potency": "inconclusive: 0.0065 µM [rising, full curve, poor fit]"}, {"smiles": "O=S(=O)(c1ccc(SCCOc2ccc(F)cc2)nc1)N1CCCC1", "Potency": "inconclusive: 18.4 µM [cytotoxic, single point]"}, {"smiles": "Clc1ccc(C2=CSC3=Nc4cccc5cccc(c45)N23)cc1", "Potency": "inconclusive: 18.4 µM [cytotoxic, single point]"}, {"smiles": "C[C@H](CO)N1C[C@H](C)[C@@H](CN(C)Cc2ccccc2)Oc2c(NC(=O)Cc3ccccc3)cccc2C1=O", "Potency": "active: 23.1 µM"}, {"smiles": "C=CC[C@@H](CC(=O)N[C@H](CO)Cc1ccccc1)C(=O)N[C@H](COC(=O)[C@H](CC=C)CC(=O)OC(C)(C)C)Cc1c[nH]c2ccccc12", "Potency": "inconclusive: 29.1 µM [cytotoxic, single point]"}, {"smiles": "Cc1ccc(NC(=O)CN2c3cccc4cccc(c34)S2(=O)=O)cc1S(=O)(=O)N1CCOCC1", "Potency": "inconclusive: 16.4 µM [cytotoxic, single point]"}, {"smiles": "Nc1nc2[nH]cc(CCc3ccc(C(=O)N[C@@H](CCC(=O)O)C(=O)O)cc3)c2c(=O)[nH]1", "activity change, negative = cytotoxic": "inactive: -14.5%"}, {"smiles": "COc1ccccc1CC(=O)Nc1ccc(-c2noc(COc3ccc(Br)cc3)n2)cc1", "Potency": "inconclusive: 29.1 µM [cytotoxic, single point]"}, {"smiles": "C=CC(=O)Nc1cccc(Nc2nc(N[C@H]3CC[C@H](N(C)C)CC3)nc3c2ncn3C(C)C)c1", "Potency": "active: 18.4 µM"}, {"smiles": "CN(C)C=Nc1ncc2c3ccccc3n(CCN(C)C)c2c1C#N", "Potency": "inconclusive: 20.6 µM [cytotoxic, single point]"}, {"smiles": "Cc1ccc(/C=C/c2nc3ccccc3s2)s1", "Potency": "inconclusive: 29.1 µM [cytotoxic, single point]"}, {"smiles": "Cc1ccc(-c2csc(NC(=O)c3ccc(S(=O)(=O)N4CCc5ccccc54)cc3)n2)cc1", "Potency": "inconclusive: 4.11 µM [cytotoxic, full curve, poor fit]"}, {"smiles": "CCN(CC)C(=S)Nc1c(C)n(C)n(-c2ccccc2)c1=O", "Potency": "inconclusive: 32.6 µM [cytotoxic, single point]"}, {"smiles": "CCOC(=O)c1c(C)oc2ncnc(Nc3cccc(C(F)(F)F)c3)c12", "activity change, negative = cytotoxic": "inactive: 6.71%"}, {"smiles": "Cc1ccc(NC(=O)CSc2nnc(-c3ccccc3)n2C)cc1", "Potency": "inconclusive: 20.6 µM [rising, partial curve]"}, {"smiles": "Cc1ccccc1N1CCN(C2=NC(=O)/C(=C\\c3cccs3)S2)CC1", "Potency": "inconclusive: 20.6 µM [cytotoxic, single point]"}, {"smiles": "CC(C)c1ccccc1NC(=O)C1CCCN(C(=O)c2ccc(Cl)cc2)C1", "note": "(stereo not drawn)", "Potency": "inconclusive: 18.4 µM [cytotoxic, partial curve]"}, {"smiles": "O=c1oc2ccccc2cc1-c1cn2cc(Cc3ccc(F)cc3)sc2n1", "Potency": "active: 0.58 µM"}, {"smiles": "O=C(Nc1cccc2ncccc12)c1cc([N+](=O)[O-])ccc1Cl", "Potency": "active: 18.4 µM"}, {"smiles": "COc1ccc(-n2c(SCC(=O)N3CCc4ccccc43)nnc2-c2c[nH]c3ccccc23)cc1", "Potency": "inconclusive: 11.6 µM [rising, partial curve, poor fit]"}, {"smiles": "CSc1ccc(CCNC(=O)Cn2nc(C)n3c(cc4sccc43)c2=O)cc1", "activity change, negative = cytotoxic": "inactive: 4.68%"}, {"smiles": "Cc1ccc(NC(=O)c2ccc3c(c2)NC(=O)c2ccccc2S3)c(Cl)c1", "Potency": "inconclusive: 29.1 µM [cytotoxic, single point]"}]}]}
